Measured values from the supplement of paper PMC10849652.
This is one part of the list.

Sequences of proteins named here, by UniProt entry; tags and fusion partners are left off. A change or cut given only in a name is not applied to a line headed by its entry.
UniProt Q96LJ8: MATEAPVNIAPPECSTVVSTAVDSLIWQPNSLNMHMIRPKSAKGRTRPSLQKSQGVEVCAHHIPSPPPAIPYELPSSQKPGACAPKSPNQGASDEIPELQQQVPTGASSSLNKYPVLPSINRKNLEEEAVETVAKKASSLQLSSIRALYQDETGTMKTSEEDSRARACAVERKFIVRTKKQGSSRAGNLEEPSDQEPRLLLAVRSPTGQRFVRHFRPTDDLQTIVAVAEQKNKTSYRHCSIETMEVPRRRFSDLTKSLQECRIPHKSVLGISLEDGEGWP
UniProt Q16881, whole entry, looked up: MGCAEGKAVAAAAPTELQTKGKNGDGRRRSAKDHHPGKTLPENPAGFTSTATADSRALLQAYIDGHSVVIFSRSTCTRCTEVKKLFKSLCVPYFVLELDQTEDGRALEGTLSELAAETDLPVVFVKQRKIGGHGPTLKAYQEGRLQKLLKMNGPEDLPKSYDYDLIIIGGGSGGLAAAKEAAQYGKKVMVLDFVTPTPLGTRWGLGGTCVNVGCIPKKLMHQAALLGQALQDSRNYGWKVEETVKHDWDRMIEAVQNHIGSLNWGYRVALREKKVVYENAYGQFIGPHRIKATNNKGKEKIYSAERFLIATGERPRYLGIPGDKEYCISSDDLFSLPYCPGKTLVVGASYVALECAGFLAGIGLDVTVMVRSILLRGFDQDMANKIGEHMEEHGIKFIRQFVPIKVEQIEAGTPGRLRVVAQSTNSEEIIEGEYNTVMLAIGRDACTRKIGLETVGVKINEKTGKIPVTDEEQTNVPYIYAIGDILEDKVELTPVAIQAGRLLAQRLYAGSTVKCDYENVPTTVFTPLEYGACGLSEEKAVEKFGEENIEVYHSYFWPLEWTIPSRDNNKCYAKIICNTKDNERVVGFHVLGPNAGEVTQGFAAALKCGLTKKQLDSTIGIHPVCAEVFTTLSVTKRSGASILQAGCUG
UniProt Q9NPG3, whole entry, looked up: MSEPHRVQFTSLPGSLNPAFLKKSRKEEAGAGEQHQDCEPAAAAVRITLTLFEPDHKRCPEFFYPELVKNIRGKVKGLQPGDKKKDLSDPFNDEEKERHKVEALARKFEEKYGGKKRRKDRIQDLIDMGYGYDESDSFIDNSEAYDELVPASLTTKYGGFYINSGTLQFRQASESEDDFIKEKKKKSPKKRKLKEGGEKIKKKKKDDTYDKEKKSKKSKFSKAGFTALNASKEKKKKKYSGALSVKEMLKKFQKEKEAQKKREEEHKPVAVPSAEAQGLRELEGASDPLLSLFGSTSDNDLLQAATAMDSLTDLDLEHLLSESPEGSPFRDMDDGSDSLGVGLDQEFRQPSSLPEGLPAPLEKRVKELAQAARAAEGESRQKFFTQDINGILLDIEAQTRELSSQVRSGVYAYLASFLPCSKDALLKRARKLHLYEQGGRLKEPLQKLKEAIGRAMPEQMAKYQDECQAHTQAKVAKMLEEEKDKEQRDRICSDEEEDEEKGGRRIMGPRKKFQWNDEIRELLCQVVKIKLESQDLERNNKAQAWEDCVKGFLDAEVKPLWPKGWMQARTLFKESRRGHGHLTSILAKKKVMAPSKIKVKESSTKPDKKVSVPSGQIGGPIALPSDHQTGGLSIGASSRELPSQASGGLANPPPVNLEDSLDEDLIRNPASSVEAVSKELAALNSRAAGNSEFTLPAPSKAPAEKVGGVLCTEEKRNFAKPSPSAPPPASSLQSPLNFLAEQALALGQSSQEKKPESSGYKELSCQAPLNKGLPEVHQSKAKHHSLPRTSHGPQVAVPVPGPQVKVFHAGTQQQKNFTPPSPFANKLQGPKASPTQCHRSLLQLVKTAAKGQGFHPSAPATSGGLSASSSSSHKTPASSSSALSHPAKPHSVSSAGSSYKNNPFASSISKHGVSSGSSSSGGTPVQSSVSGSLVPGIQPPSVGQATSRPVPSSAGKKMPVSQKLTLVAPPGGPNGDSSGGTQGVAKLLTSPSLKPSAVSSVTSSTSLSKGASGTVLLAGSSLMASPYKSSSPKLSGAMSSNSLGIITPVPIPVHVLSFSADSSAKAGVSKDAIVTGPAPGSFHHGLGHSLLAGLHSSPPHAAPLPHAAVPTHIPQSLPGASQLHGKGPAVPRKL
UniProt Q8NBM4: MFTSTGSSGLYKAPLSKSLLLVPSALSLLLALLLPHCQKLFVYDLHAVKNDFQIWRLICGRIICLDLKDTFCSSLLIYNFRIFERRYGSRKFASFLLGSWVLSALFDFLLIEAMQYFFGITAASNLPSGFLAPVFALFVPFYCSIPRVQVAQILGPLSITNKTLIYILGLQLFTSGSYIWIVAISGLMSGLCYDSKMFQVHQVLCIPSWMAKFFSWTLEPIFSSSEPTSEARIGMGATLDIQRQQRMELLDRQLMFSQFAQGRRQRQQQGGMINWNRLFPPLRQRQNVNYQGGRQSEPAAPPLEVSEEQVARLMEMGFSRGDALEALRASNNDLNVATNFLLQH
UniProt Q9P2K2: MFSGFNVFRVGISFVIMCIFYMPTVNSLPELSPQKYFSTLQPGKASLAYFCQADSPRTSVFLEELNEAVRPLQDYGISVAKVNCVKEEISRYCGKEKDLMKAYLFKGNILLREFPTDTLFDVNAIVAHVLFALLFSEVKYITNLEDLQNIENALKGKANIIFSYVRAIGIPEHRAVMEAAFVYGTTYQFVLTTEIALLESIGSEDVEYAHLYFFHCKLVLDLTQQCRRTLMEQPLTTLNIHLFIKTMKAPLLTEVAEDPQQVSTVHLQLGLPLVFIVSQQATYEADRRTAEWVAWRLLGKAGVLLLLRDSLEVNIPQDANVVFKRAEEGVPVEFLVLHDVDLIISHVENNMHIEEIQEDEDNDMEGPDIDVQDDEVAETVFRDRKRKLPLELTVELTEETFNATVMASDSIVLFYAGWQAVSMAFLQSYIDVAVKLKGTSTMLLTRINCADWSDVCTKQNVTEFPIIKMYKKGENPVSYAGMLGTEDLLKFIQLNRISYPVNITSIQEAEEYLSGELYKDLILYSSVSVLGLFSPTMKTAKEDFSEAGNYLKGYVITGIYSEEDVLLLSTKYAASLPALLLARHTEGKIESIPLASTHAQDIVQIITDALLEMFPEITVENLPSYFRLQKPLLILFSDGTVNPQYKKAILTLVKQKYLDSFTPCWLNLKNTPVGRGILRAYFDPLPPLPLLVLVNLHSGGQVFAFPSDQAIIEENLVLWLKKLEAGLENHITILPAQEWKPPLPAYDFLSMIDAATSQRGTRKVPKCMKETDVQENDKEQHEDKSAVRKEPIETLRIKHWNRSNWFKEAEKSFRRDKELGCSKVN
UniProt Q9UMX0, whole entry, looked up: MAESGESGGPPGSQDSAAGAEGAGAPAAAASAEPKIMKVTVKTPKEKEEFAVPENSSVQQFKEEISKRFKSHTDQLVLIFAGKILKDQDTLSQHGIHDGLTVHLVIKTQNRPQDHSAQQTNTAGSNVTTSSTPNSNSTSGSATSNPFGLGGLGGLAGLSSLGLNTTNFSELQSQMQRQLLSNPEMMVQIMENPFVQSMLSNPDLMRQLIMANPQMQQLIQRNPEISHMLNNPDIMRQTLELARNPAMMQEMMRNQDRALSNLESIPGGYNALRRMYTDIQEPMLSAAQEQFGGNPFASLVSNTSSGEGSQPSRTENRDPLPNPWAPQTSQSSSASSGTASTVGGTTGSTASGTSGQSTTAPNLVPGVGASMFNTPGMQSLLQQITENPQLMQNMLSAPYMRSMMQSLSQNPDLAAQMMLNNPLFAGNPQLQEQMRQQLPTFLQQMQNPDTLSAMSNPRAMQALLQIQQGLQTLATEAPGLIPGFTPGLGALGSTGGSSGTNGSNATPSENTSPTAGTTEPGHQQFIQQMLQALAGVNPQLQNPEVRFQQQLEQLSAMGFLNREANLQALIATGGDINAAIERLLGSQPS
UniProt P68543: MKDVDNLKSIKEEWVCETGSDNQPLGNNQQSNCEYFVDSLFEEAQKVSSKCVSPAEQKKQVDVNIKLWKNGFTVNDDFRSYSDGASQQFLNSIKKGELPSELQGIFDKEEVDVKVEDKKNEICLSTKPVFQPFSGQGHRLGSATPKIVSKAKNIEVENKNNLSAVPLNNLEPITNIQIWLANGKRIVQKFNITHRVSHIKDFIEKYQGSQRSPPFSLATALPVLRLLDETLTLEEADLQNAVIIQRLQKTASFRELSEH
UniProt Q96ET8: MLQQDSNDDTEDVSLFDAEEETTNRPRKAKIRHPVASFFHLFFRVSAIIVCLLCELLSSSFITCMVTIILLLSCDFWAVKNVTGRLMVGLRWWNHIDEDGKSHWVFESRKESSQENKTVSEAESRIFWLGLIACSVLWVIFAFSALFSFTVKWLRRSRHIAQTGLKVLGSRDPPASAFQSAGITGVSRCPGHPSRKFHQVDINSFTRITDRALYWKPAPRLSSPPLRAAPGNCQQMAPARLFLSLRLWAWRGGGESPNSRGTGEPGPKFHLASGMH
UniProt A2RUC4: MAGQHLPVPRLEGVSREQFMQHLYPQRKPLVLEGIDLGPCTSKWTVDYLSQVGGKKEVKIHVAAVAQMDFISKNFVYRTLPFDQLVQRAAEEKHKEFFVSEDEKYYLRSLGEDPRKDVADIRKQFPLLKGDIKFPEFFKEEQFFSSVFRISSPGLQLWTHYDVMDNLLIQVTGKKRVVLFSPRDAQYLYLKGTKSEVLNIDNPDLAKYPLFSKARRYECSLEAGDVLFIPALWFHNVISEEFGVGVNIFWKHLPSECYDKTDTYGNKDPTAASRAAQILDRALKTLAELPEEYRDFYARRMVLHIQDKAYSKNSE
UniProt P29597: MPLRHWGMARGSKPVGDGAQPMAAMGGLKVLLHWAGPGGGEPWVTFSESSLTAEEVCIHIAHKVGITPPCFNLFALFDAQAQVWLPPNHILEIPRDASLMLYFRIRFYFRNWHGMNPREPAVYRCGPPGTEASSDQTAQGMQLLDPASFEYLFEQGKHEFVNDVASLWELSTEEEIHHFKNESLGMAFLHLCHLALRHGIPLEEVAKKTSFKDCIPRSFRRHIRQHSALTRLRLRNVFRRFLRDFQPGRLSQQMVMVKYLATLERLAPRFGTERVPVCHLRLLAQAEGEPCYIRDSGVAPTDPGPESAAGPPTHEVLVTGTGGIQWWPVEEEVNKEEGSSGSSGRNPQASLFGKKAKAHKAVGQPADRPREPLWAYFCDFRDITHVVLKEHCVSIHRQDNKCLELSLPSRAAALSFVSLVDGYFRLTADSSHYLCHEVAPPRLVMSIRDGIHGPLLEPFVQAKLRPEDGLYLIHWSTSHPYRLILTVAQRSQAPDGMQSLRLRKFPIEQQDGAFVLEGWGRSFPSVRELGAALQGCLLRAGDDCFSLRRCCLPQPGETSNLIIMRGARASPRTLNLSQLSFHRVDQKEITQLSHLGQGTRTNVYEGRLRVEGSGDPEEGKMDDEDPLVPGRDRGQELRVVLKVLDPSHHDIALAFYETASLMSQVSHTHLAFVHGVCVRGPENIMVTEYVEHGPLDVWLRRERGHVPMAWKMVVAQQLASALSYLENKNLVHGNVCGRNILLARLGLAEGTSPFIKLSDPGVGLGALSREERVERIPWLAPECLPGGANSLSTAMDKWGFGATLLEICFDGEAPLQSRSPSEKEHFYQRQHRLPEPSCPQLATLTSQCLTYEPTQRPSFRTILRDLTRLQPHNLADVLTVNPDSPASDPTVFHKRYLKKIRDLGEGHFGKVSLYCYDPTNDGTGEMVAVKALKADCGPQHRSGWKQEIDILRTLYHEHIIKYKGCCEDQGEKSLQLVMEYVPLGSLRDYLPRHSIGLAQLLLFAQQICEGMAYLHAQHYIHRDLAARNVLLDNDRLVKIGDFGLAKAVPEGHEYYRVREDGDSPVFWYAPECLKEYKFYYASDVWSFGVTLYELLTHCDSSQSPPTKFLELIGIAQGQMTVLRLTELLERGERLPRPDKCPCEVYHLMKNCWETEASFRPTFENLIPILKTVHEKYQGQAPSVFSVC
UniProt Q86VQ3: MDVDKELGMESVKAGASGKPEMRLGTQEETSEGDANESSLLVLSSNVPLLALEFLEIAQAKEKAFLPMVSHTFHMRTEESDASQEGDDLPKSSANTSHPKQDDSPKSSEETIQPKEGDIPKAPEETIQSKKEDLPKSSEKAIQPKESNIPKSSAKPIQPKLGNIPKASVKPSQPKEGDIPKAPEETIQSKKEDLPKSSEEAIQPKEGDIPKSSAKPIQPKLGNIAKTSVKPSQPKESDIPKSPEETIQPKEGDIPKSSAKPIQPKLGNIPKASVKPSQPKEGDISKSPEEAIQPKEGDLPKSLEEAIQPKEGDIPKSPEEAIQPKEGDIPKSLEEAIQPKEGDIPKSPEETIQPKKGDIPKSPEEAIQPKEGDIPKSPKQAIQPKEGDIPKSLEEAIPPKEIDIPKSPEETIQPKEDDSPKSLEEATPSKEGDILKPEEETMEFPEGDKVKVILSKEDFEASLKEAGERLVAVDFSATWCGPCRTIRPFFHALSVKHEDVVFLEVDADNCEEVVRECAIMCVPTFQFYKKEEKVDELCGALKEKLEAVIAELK
UBE2L5, A0A1B0GUS4, UniProt A0A1B0GUS4, whole entry, looked up: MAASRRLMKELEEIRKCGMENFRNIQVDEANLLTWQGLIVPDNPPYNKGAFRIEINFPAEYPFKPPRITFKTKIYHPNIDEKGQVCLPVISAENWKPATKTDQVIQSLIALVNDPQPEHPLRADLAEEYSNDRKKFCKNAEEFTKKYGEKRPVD

Each target was assayed with Cn1cc(-c2ccc3c(c2)CCN3C(=O)Cc2cccc(C(F)(F)F)c2)c2c(N)ncnc21 (assay: log2 fold change, soluble protein after heating vs DMSO (PISA); higher = thermal stabilisation; K562 lysate, 10 uM; active = over 0.2 and 3.5 SD of the protein, either way, in both replicates (recomputed)).
Procedure, shortened: (§1)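 Log-two fold change in thermal stability relative to solvent controls is reported from duplicates. For each sample, crude K562 extract from dounce-homogenised pellets in PBS pH 7.4 with 1 mM MgCl2, at 1 mg/mL protein, was treated with 10 μM compound for 30 min. Aliquots heated for 3 min across 48°C-58°C were pooled, brought to 0.5% NP-40 at 4°C and cleared at 21,000xg for 90 min. The supernatant was quantified by TMTpro 16plex LC-MS/MS with channel sums equalised.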
In the case of UBXN10 (UniProt Q96LJ8), the log2 fold change was inactive: 0.008.
UBR4 isoform 4 (UniProt Q5T4S7) was tested, and the log2 fold change was inactive: -0.158.
In the case of U2SURP isoform 2 (UniProt O15042), the log2 fold change was inactive: -0.118.
TXNRD1 isoform 7 (UniProt Q16881) was tested, and the log2 fold change was inactive: -0.25.
For UBN1 (UniProt Q9NPG3), the log2 fold change was inactive: 0.055.
With UBAC2 (UniProt Q8NBM4) the log2 fold change was inactive: -0.024.
With TXNDC16 (UniProt Q9P2K2) the log2 fold change was inactive: -0.096.
In the case of UCHL5 (UniProt Q5LJA9), the log2 fold change was inactive: -0.075.
In the case of UBE2I (UniProt H3BQQ9), the log2 fold change was inactive: 0.041.
For UBQLN1 isoform 2 (UniProt Q9UMX0), the log2 fold change was inactive: 0.022.
For TXNDC9 isoform 2 (UniProt O14530), the log2 fold change was inactive: 0.048.
UBXN2A (UniProt P68543) was tested, and the log2 fold change was inactive: -0.035.

Each target was assayed with Cn1cc(CNCC2CCN(c3ncc(C(=O)NO)cn3)CC2)c2ccccc21 [quisinostat] in the same assay as above.
Procedure, shortened: as §1
UBXN10 (UniProt Q96LJ8) was tested, and the log2 fold change was inactive: -0.028.
For UBAP2, A0A0D9SFI5, the log2 fold change was inactive: 0.151.
For TVP23C (UniProt Q96ET8), the log2 fold change was inactive: -0.084.
UBA7 (UniProt P41226) was tested, and the log2 fold change was inactive: -0.075.
For UBN1 (UniProt Q9NPG3), the log2 fold change was inactive: 0.114.
TYW5 (UniProt A2RUC4) was tested, and the log2 fold change was inactive: 0.242.
UBAC2 (UniProt Q8NBM4) was tested, and the log2 fold change was inactive: -0.001.
In the case of TXNDC16 (UniProt Q9P2K2), the log2 fold change was inactive: -0.001.
In the case of TYK2 (UniProt P29597), the log2 fold change was inactive: 0.005.
With TYRO3 (UniProt Q06418) the log2 fold change was inactive: -0.161.
For UCHL5 (UniProt Q5LJA9), the log2 fold change was inactive: -0.186.
In the case of TXNDC2 (UniProt Q86VQ3), the log2 fold change was inactive: 0.006.
With UBE2I (UniProt H3BQQ9) the log2 fold change was inactive: -0.232.
For UBQLN1 isoform 2 (UniProt Q9UMX0), the log2 fold change was inactive: -0.041.
For UBA2 (UniProt U3KQ93), the log2 fold change was inactive: -0.195.
UBAP2L (UniProt F8W726) was tested, and the log2 fold change was inactive: 0.11.
TUBB6 (UniProt K7ES63) was tested, and the log2 fold change was inactive: -0.267.
UBXN2A (UniProt P68543) was tested, and the log2 fold change was inactive: -0.13.

What follows are targets tested with Cn1cncc1[C@@](N)(c1ccc(Cl)cc1)c1ccc2c(c1)c(-c1cccc(Cl)c1)cc(=O)n2C [tipifarnib] in the same assay as above.
Procedure, shortened: as §1
For TUFT1 (UniProt Q9NNX1), the log2 fold change was inactive: 0.034.
For U2AF2 (UniProt K7ELP8), the log2 fold change was inactive: 0.145.
In the case of UBE2K (UniProt D6RDM7), the log2 fold change was inactive: -0.037.
For UBAP2 (UniProt Q5JV08), the log2 fold change was inactive: 0.133.
TYW5 (UniProt A2RUC4) was tested, and the log2 fold change was inactive: -0.106.
UBXN7 (UniProt H7BYF4) was tested, and the log2 fold change was inactive: 0.044.
With TXNDC2 (UniProt Q86VQ3) the log2 fold change was inactive: 0.019.
For TUBB6 (UniProt K7ES63), the log2 fold change was inactive: 0.08.

Each target was assayed with NC(=O)Nc1cc(-c2cccc(F)c2)sc1C(=O)N[C@H]1CCCNC1 in the same assay as above.
Procedure, shortened: as §1
In the case of UBXN10 (UniProt Q96LJ8), the log2 fold change was inactive: 0.035.
UBAP2, A0A0D9SFI5 was tested, and the log2 fold change was inactive: 0.111.
For TVP23C (UniProt Q96ET8), the log2 fold change was inactive: -0.023.
For UBA7 (UniProt P41226), the log2 fold change was inactive: 0.084.
In the case of UBN1 (UniProt Q9NPG3), the log2 fold change was inactive: -0.053.
With TYW5 (UniProt A2RUC4) the log2 fold change was inactive: 0.073.
With UBAC2 (UniProt Q8NBM4) the log2 fold change was inactive: 0.019.
In the case of TXNDC16 (UniProt Q9P2K2), the log2 fold change was inactive: 0.064.
TYK2 (UniProt P29597) was tested, and the log2 fold change was inactive: 0.016.
TYRO3 (UniProt Q06418) was tested, and the log2 fold change was inactive: 0.205.
UCHL5 (UniProt Q5LJA9) was tested, and the log2 fold change was inactive: -0.024.
In the case of TXNDC2 (UniProt Q86VQ3), the log2 fold change was inactive: 0.045.
For UBE2I (UniProt H3BQQ9), the log2 fold change was inactive: -0.066.
In the case of UBQLN1 isoform 2 (UniProt Q9UMX0), the log2 fold change was inactive: -0.183.
For UBA2 (UniProt U3KQ93), the log2 fold change was inactive: 0.06.
UBAP2L (UniProt F8W726) was tested, and the log2 fold change was inactive: 0.043.
For TUBB6 (UniProt K7ES63), the log2 fold change was inactive: 0.049.
With UBXN2A (UniProt P68543) the log2 fold change was inactive: 0.017.

What follows are targets tested with NC(=O)c1cnc(N[C@@H]2CCCC[C@@H]2N)nc1Nc1cccc(-n2nccn2)c1 in the same assay as above.
Procedure, shortened: as §1
For UBXN10 (UniProt Q96LJ8), the log2 fold change was inactive: 0.078.
In the case of UBR4 isoform 4 (UniProt Q5T4S7), the log2 fold change was inactive: -0.078.
In the case of U2AF2 (UniProt K7ELP8), the log2 fold change was inactive: 0.058.
UBE2L5, A0A1B0GUS4 was tested, and the log2 fold change was inactive: 0.077.
For UBE2K (UniProt D6RDM7), the log2 fold change was inactive: 0.108.
In the case of TXNRD3 (UniProt Q86VQ6), the log2 fold change was inactive: -0.092.
For UBE2O (UniProt K7ES11), the log2 fold change was inactive: -0.149.
For TXNRD1 isoform 7 (UniProt Q16881), the log2 fold change was inactive: -0.107.
In the case of UBN1 (UniProt Q9NPG3), the log2 fold change was inactive: 0.001.
In the case of TYW5 (UniProt A2RUC4), the log2 fold change was inactive: -0.064.
For UBAC2 (UniProt Q8NBM4), the log2 fold change was inactive: 0.069.
For TXNDC16 (UniProt Q9P2K2), the log2 fold change was inactive: -0.1.
With UBXN7 (UniProt H7BYF4) the log2 fold change was inactive: -0.036.
In the case of UCHL5 (UniProt Q5LJA9), the log2 fold change was inactive: 0.009.
In the case of TXNDC2 (UniProt Q86VQ3), the log2 fold change was inactive: 0.048.
For UBE2I (UniProt H3BQQ9), the log2 fold change was inactive: 0.194.
For UBQLN1 isoform 2 (UniProt Q9UMX0), the log2 fold change was inactive: -0.072.
UBAP2L (UniProt F8W726) was tested, and the log2 fold change was inactive: 0.099.
For UBA2 (UniProt K7ESK7), the log2 fold change was inactive: -0.096.
With TUBB6 (UniProt K7ES63) the log2 fold change was inactive: 0.08.
For UBXN2A (UniProt P68543), the log2 fold change was inactive: -0.081.
